Test results published in patent publication US20040214757.
For some assays here: Results from cells or extracts need not show a direct contact. For some assays here: A weaker result is weaker than the reference pair of the same experiment. For some assays here: Where a protein sequence is shown, tags need not be part of it. For some assays here: The exact form of at least one protein or probe is not confirmed. For some assays here: No signal at the amounts used counts as a negative.

Columns and labels:
[1] = test system: NF-kappaB (Mus musculus); assay: EMSA; conditions: protein in an extract
[2] = test system: lambda h3 MHC-element binding protein beta-galactosidase fusion (Homo sapiens); assay: EMSA; conditions: protein in a lysate after overexpression
[3] = test system: lambda h3 MHC-element binding protein beta-galactosidase fusion (Homo sapiens); assay: binding assay; conditions: plaque filter screening; protein in a lysate after overexpression
[4] = test system: E factor (NF-muE3) (Homo sapiens); assay: EMSA; conditions: complex half-life less than 1 minute; protein in an extract; protein details: EW B lymphoma nuclear extract
[5] = molecular target: T1, Oct-2 truncated at EagI (cDNA 655-945) (Homo sapiens) (UniProt P09086); assay: EMSA; conditions: protein translated in vitro
T1 sequence: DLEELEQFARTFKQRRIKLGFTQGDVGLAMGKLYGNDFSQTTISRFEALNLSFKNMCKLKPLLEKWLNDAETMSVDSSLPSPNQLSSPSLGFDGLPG

[6] = molecular target: T2, IgNF-A (NF-A1, ubiquitous octamer binding protein) (Homo sapiens) (UniProt P14859); assay: EMSA; conditions: protein in an extract
T2 sequence (looked up, limits assumed): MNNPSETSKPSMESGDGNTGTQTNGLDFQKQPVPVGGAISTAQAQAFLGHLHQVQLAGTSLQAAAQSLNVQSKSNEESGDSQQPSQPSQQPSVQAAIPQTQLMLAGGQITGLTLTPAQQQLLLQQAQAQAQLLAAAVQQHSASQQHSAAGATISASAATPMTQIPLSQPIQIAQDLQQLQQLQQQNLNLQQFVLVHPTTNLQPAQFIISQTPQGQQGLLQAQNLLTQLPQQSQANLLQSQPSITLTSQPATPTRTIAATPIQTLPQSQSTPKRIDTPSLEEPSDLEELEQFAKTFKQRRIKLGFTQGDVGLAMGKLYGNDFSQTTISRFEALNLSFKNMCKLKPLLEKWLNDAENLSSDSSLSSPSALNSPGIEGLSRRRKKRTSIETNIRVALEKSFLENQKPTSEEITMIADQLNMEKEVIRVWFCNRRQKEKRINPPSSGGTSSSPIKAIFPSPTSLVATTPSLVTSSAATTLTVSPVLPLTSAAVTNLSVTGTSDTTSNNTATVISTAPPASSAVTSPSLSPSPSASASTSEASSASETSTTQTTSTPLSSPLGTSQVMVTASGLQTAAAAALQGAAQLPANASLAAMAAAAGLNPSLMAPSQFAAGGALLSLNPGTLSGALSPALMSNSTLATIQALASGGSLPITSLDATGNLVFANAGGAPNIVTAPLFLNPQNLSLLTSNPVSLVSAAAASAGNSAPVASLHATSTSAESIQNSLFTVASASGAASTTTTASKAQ

[7] = test system: NF-kappaB (Homo sapiens); assay: EMSA; conditions: protein in an extract, protein details: PHA/PMA-stimulated Jurkat nuclear extract
[8] = test system: NF-kappaB (Homo sapiens); assay: binding assay; conditions: CITED direct binding per footnote; protein in an extract; protein details: PHA/PMA-stimulated Jurkat nuclear extract; cited from earlier work
[9] = molecular target: T3, Oct-2 phage 3 beta-galactosidase fusion (Homo sapiens) (UniProt P09086); assay: competition with a labelled probe; conditions: mutant slight competitor; protein in a lysate after overexpression; variant of MOPC-41 V kappa promoter octamer (VL)
T3 sequence (limits assumed): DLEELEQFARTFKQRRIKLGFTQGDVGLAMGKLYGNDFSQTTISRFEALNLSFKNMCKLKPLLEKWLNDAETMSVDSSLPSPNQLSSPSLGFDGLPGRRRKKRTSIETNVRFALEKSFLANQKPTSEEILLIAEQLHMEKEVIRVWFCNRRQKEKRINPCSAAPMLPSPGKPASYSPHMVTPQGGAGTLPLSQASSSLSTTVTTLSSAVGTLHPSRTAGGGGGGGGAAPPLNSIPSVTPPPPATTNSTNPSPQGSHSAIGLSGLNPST

[10] = test system: NF-kappaB (Mus musculus); assay: competition with a labelled probe; conditions: virus-infected 70Z/3; protein in an extract
[11] = molecular target: T4, IgNF-B (NF-A2, lymphoid octamer binding protein) (Homo sapiens) (UniProt P09086); assay: EMSA; conditions: protein in an extract; protein details: BJAB nuclear extract
T4 sequence (looked up, limits assumed): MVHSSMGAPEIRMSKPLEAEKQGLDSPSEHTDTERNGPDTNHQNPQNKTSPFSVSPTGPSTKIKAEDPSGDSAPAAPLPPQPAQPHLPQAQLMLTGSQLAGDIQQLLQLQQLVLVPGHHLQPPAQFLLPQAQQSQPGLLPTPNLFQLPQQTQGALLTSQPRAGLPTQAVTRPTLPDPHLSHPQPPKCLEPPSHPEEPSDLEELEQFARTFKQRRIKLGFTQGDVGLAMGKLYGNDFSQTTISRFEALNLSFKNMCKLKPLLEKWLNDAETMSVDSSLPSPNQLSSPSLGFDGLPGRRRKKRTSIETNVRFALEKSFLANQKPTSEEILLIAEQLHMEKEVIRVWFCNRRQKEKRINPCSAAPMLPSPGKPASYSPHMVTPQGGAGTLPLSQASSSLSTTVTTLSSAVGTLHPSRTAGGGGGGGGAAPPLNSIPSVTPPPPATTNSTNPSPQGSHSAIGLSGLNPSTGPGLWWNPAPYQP

[12] = molecular target: T3, Oct-2 phage 3 beta-galactosidase fusion (Homo sapiens); assay: EMSA; conditions: kappa promoter PvuII-EcoRI probe; protein in a lysate after overexpression

AAATACTTTCCG (double strand) [mutant kappa EN]
binding result ([1]; mutant kappa enhancer fragment, variant of kappa EN (Ig kappa enhancer kappaB site)): no binding
binding result ([2]; variant of kappa EN (Ig kappa enhancer kappaB site)): no binding

AAATCCCCTAAAACGAGGGATAAA (double strand) [ori lambda O site probe]
binding result [3]: no binding

AGCAGCTCATGTGGCAAGGCTA (double strand) [mu70 AluI-AluI enhancer fragment (E3)]
binding result [4]: binds

AGGGGACTTTCCGG (double strand) [kappa EN (Ig kappa enhancer kappaB site)]
binding result ([1]; DdeI-HaeIII k3 fragment): binds
binding result [2]: binds

ATGCAAAT (double strand) [OCTA octanucleotide probe]
binding result [5]: no binding
binding result [3]: no binding

CCTGGGTAATTTGCATTTCTAAAA (double strand) [JH-Cmu heavy chain enhancer octamer]
binding result [6]: binds

CGCACATGATTTGCATACTCATGA (double strand) [V17.2.25 VH promoter octamer]
binding result [6]: binds

GAGAAGTGAAAGTGGGAAATTCCTCTGAATAGAGAGAGGAC (double strand) [IRE (interferon-beta gene regulatory element)]
binding result [7]: binds
binding result ([1]; virus-infected 70Z/3): binds

GATCCGGCTGCGGATTCCCAATCT (double strand) [mhc1 mutant probe]
binding result ([7]; CITED, variant of MHC probe (H-2Kb element), cited from earlier work): no binding
binding result ([2]; variant of MHC probe (H-2Kb element)): no binding

GATCCGGCTGGGGATTCCCCATCT (double strand) [MHC probe (H-2Kb element)]
binding result ([7]; CITED, cited from earlier work): binds
binding result ([2]; methylation interference symmetric): binds

GATCTGTGGGAAATTCCGTGGGAAATTCCGGATC (double strand) [PRDIIx2]
binding result [7]: binds

GGGAATCTCC (double strand) [human IL-2R alpha site]
binding result [8]: binds

GGGACTTCCC (double strand) [MHC class II E alpha d site]
binding result [8]: binds

GGGATTCCCC (double strand) [H2-Kb site]
binding result [8]: binds

GGGATTTCAC (double strand) [IL-2 site]
binding result [8]: binds

GGGGATTCCT (double strand) [mouse IL-2R alpha site]
binding result [8]: binds

GGGGATTTCC (double strand) [human Ig kappa enhancer kappaB site]
binding result [8]: binds

TCATTTCCAT (double strand) [mutant octamer]
binding result [9]: binds more weakly

TCGACAGAGGGGACTTTCCGAGAGGCTCGA (double strand) [kappaB wild-type oligonucleotide]
binding result [7]: binds
binding result [10]: binds

TCTTAATAATTTGCATACCCTCAC (double strand) [MOPC-41 V kappa promoter octamer (VL)]
binding result [6]: binds
binding result [11]: binds
binding result [12]: binds
